Assay results reported in article PMC6436931, “Activation of the Endonuclease that Defines mRNA 3′ Ends Requires Incorporation into an 8-Subunit Core Cleavage and Polyadenylation Factor Complex” (Molecular Cell, 2019).
A weaker result is weaker than the reference pair of the same experiment. For part of these data: Construct, isoform or probe ends are uncertain for at least one entry.

What was measured:
Test in all cases: EMSA
Ysh1 + Mpe1 = conditions: EMSA: 50 nM RNA, 0.25-4.0 uM protein, protein diluted in 10 mM HEPES pH 7.9, 150 mM NaCl, 0.5 mM Mg(OAc)2, plus 1x loading dye (orange G, glycerol, EDTA); 30 min on ice; recombinant protein; label: 5'-FAM
Ysh1 + Mpe1 + Yjr141w = conditions: EMSA: 50 nM RNA, 0.25-4.0 uM protein, protein diluted in 10 mM HEPES pH 7.9, 150 mM NaCl, 0.5 mM Mg(OAc)2, plus 1x loading dye (orange G, glycerol, EDTA); 30 min on ice; recombinant protein; label: 5'-FAM
[1] = tested on: Cft1 + Pfs2 + Yth1 + Fip1 + Pap1; conditions: CPFpol; EMSA: 50 nM RNA, 0.25-4.0 uM protein, protein diluted in 10 mM HEPES pH 7.9, 150 mM NaCl, 0.5 mM Mg(OAc)2, plus 1x loading dye (orange G, glycerol, EDTA); 30 min on ice; recombinant protein; label: 5'-FAM
[2] = tested on: Cft1 + Pfs2 + Yth1 + Fip1; conditions: CPFpol (no Pap1); EMSA: 50 nM RNA, 0.25-4.0 uM protein, protein diluted in 10 mM HEPES pH 7.9, 150 mM NaCl, 0.5 mM Mg(OAc)2, plus 1x loading dye (orange G, glycerol, EDTA); 30 min on ice; recombinant protein; protein details: 3C-SII,3C-8H, untagged in CPFpol+Cft2; label: 5'-FAM

Measured: binding result

AAGAACGUUAUUUAUAUUUCAAAUUUUUCUUUUUU [CYC1d EMSA probe]
binds more weakly: Ysh1 + Mpe1 | Ysh1 + Mpe1 + Yjr141w

CGUUAUUUAUAUUUCAAAUUUUUCU [CYC1f EMSA probe]
binds more weakly: all assays above
